Measured values reported in the supplement of paper PMC8728848.
The other results are listed elsewhere or left out.

What was measured:
Test in all cases: glycan array binding signal (z-score within array); higher = stronger binding
Conditions in all cases: glycan notation: IUPAC condensed, linker removed
[1] = biological target: GlcNAc(b1-3)Gal(b1-4)Glc
Summary of the method: (§1)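 From the Consortium for Functional Glycomics database, 3228 arrays were curated, keeping only those whose protein sequence was available. Binding is given as a within-array Z-score averaged across arrays sharing a protein sequence and across linkers. Negative Z-scores can be read as non-binding.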

[2] = biological target: GlcNAc(b1-3)Gal(b1-4)GlcNAc
Summary of the method: as §1

[3] = biological target: GlcNAc(b1-3)Gal(b1-4)GlcNAc(b1-2)Man(a1-3)[GlcNAc(b1-3)Gal(b1-4)GlcNAc(b1-2)Man(a1-6)]Man(b1-4)GlcNAc(b1-4)GlcNAc
Summary of the method: as §1

[4] = biological target: GlcNAc(b1-3)Gal(b1-4)GlcNAc(b1-2)Man(a1-3)[GlcNAc(b1-3)Gal(b1-4)GlcNAc(b1-2)Man(a1-6)]Man(b1-4)GlcNAc(b1-4)[Fuc(a1-6)]GlcNAc
Summary of the method: as §1

[5] = biological target: GlcNAc(b1-3)Gal(b1-4)GlcNAc(b1-2)[GlcNAc(b1-3)Gal(b1-4)GlcNAc(b1-6)]Man(a1-6)[GlcNAc(b1-3)Gal(b1-4)GlcNAc(b1-2)Man(a1-3)]Man(b1-4)GlcNAc(b1-4)GlcNAc
Summary of the method: as §1

[6] = biological target: GlcNAc(b1-3)Gal(b1-4)GlcNAc(b1-3)Gal(b1-4)GlcNAc
Summary of the method: as §1

[7] = biological target: GlcNAc(b1-3)Gal(b1-4)GlcNAc(b1-3)Gal(b1-4)GlcNAc(b1-2)Man(a1-3)[GlcNAc(b1-3)Gal(b1-4)GlcNAc(b1-3)Gal(b1-4)GlcNAc(b1-2)Man(a1-6)]Man(b1-4)GlcNAc(b1-4)GlcNAc
Summary of the method: as §1

[8] = biological target: GlcNAc(b1-3)Gal(b1-4)GlcNAc(b1-3)Gal(b1-4)GlcNAc(b1-2)Man(a1-3)[GlcNAc(b1-3)Gal(b1-4)GlcNAc(b1-3)Gal(b1-4)GlcNAc(b1-2)Man(a1-6)]Man(b1-4)GlcNAc(b1-4)[Fuc(a1-6)]GlcNAc
Summary of the method: as §1

[9] = biological target: GlcNAc(b1-3)Gal(b1-4)GlcNAc(b1-3)Gal(b1-4)GlcNAc(b1-2)[GlcNAc(b1-3)Gal(b1-4)GlcNAc(b1-3)Gal(b1-4)GlcNAc(b1-6)]Man(a1-6)[GlcNAc(b1-3)Gal(b1-4)GlcNAc(b1-3)Gal(b1-4)GlcNAc(b1-2)Man(a1-3)]Man(b1-4)GlcNAc(b1-4)[Fuc(a1-6)]GlcNAc
Summary of the method: as §1

[10] = biological target: GlcNAc(b1-3)Gal(b1-4)GlcNAc(b1-3)Gal(b1-4)GlcNAc(b1-3)Gal(b1-4)GlcNAc(b1-2)Man(a1-3)[GlcNAc(b1-3)Gal(b1-4)GlcNAc(b1-3)Gal(b1-4)GlcNAc(b1-3)Gal(b1-4)GlcNAc(b1-2)Man(a1-6)]Man(b1-4)GlcNAc(b1-4)GlcNAc
Summary of the method: as §1

[11] = biological target: GlcNAc(b1-3)Gal(b1-4)GlcNAc(b1-3)Gal(b1-4)GlcNAc(b1-3)Gal(b1-4)GlcNAc(b1-2)Man(a1-3)[GlcNAc(b1-3)Gal(b1-4)GlcNAc(b1-3)Gal(b1-4)GlcNAc(b1-3)Gal(b1-4)GlcNAc(b1-2)Man(a1-6)]Man(b1-4)GlcNAc(b1-4)[Fuc(a1-6)]GlcNAc
Summary of the method: as §1

[12] = biological target: GlcNAc(b1-3)Gal(b1-4)GlcNAc(b1-3)Gal(b1-4)GlcNAc(b1-3)Gal(b1-4)GlcNAc(b1-2)[GlcNAc(b1-3)Gal(b1-4)GlcNAc(b1-3)Gal(b1-4)GlcNAc(b1-3)Gal(b1-4)GlcNAc(b1-6)]Man(a1-6)[GlcNAc(b1-3)Gal(b1-4)GlcNAc(b1-3)Gal(b1-4)GlcNAc(b1-3)Gal(b1-4)GlcNAc(b1-2)Man(a1-3)]Man(b1-4)GlcNAc(b1-4)[Fuc(a1-6)]GlcNAc
Summary of the method: as §1

[13] = biological target: GlcNAc(b1-3)Gal(b1-4)GlcNAc(b1-3)Gal(b1-4)GlcNAc(b1-3)Gal(b1-4)GlcNAc(b1-3)Gal(b1-4)GlcNAc(b1-2)Man(a1-3)[GlcNAc(b1-3)Gal(b1-4)GlcNAc(b1-3)Gal(b1-4)GlcNAc(b1-3)Gal(b1-4)GlcNAc(b1-3)Gal(b1-4)GlcNAc(b1-2)Man(a1-6)]Man(b1-4)GlcNAc(b1-4)GlcNAc
Summary of the method: as §1

[14] = biological target: GlcNAc(b1-3)Gal(b1-4)GlcNAc(b1-3)Gal(b1-4)GlcNAc(b1-3)Gal(b1-4)GlcNAc(b1-3)Gal(b1-4)GlcNAc(b1-2)Man(a1-3)[GlcNAc(b1-3)Gal(b1-4)GlcNAc(b1-3)Gal(b1-4)GlcNAc(b1-3)Gal(b1-4)GlcNAc(b1-3)Gal(b1-4)GlcNAc(b1-2)Man(a1-6)]Man(b1-4)GlcNAc(b1-4)[Fuc(a1-6)]GlcNAc
Summary of the method: as §1

[15] = biological target: GlcNAc(b1-3)Gal(b1-4)GlcNAc(b1-3)Gal(b1-4)GlcNAc(b1-3)Gal(b1-4)GlcNAc(b1-3)Gal(b1-4)GlcNAc(b1-2)[GlcNAc(b1-3)Gal(b1-4)GlcNAc(b1-3)Gal(b1-4)GlcNAc(b1-3)Gal(b1-4)GlcNAc(b1-3)Gal(b1-4)GlcNAc(b1-6)]Man(a1-6)[GlcNAc(b1-3)Gal(b1-4)GlcNAc(b1-3)Gal(b1-4)GlcNAc(b1-3)Gal(b1-4)GlcNAc(b1-3)Gal(b1-4)GlcNAc(b1-2)Man(a1-3)]Man(b1-4)GlcNAc(b1-4)[Fuc(a1-6)]GlcNAc
Summary of the method: as §1

[16] = biological target: GlcNAc(b1-3)Gal(b1-4)GlcNAc(b1-3)Gal(b1-4)GlcNAc(b1-3)GalNAc
Summary of the method: as §1

[17] = biological target: GlcNAc(b1-3)Gal(b1-4)GlcNAc(b1-3)GalNAc
Summary of the method: as §1

[18] = biological target: GlcNAc(b1-3)Gal(b1-4)GlcNAc(b1-3)[GlcNAc(b1-3)Gal(b1-4)GlcNAc(b1-3)]GalNAc
Summary of the method: as §1

[19] = biological target: GlcNAc(b1-3)Gal(b1-4)GlcNAc(b1-6)[Gal(b1-3)]GalNAc
Summary of the method: as §1

[20] = biological target: GlcNAc(b1-3)Gal(b1-4)GlcNAc(b1-6)[GlcNAc(b1-3)Gal(b1-3)]GalNAc
Summary of the method: as §1

[21] = biological target: GlcNAc(b1-3)Gal(b1-4)GlcNAc(b1-6)[GlcNAc(b1-3)]Gal(b1-4)GlcNAc
Summary of the method: as §1

[22] = biological target: GlcNAc(b1-3)GalNAc
Summary of the method: as §1

[23] = biological target: GlcNAc(b1-3)Man
Summary of the method: as §1

[24] = biological target: GlcNAc(b1-3)[GlcNAc(b1-4)][GlcNAc(b1-6)]GlcNAc
Summary of the method: as §1

[25] = biological target: GlcNAc(b1-3)[GlcNAc(b1-6)]Gal(b1-4)GlcNAc
Summary of the method: as §1

[26] = biological target: GlcNAc(b1-3)[GlcNAc(b1-6)]GalNAc
Summary of the method: as §1

[27] = biological target: GlcNAc(b1-4)Gal(b1-4)GlcNAc
Summary of the method: as §1

[28] = biological target: GlcNAc(b1-4)GlcNAc
Summary of the method: as §1

[29] = biological target: GlcNAc(b1-4)GlcNAc(b1-4)GlcNAc
Summary of the method: as §1

[30] = biological target: GlcNAc(b1-4)GlcNAc(b1-4)GlcNAc(b1-4)GlcNAc(b1-4)GlcNAc
Summary of the method: as §1

[31] = biological target: GlcNAc(b1-4)GlcNAc(b1-4)GlcNAc(b1-4)GlcNAc(b1-4)GlcNAc(b1-4)GlcNAc
Summary of the method: as §1

[32] = biological target: GlcNAc(b1-4)[GlcNAc(b1-6)]GalNAc
Summary of the method: as §1

[33] = biological target: GlcNAc(b1-6)Gal(b1-4)GlcNAc
Summary of the method: as §1

[34] = biological target: GlcNAc(b1-6)GalNAc
Summary of the method: as §1

[35] = biological target: GlcNAc6S(b1-3)Gal(b1-4)GlcNAc
Summary of the method: as §1

[36] = biological target: Kdn(a2-3)Gal(b1-3)GalNAc
Summary of the method: as §1

[37] = biological target: Kdn(a2-3)Gal(b1-3)GlcNAc
Summary of the method: as §1

[38] = biological target: Kdn(a2-3)Gal(b1-4)Glc
Summary of the method: as §1

[39] = biological target: Kdn(a2-3)Gal(b1-4)GlcNAc
Summary of the method: as §1

[40] = biological target: Kdn(a2-3)Gal(b1-4)[Fuc(a1-3)]GlcNAc
Summary of the method: as §1

[41] = biological target: Kdn(a2-6)Gal(b1-4)GlcNAc
Summary of the method: as §1

[42] = biological target: Man(a1-2)Man(a1-2)Man(a1-3)Man
Summary of the method: as §1

[43] = biological target: Man(a1-2)Man(a1-2)Man(a1-6)[Man(a1-3)]Man
Summary of the method: as §1

[44] = biological target: Man(a1-2)Man(a1-3)Man
Summary of the method: as §1

[45] = biological target: Man(a1-2)Man(a1-3)[Man(a1-2)Man(a1-6)]Man
Summary of the method: as §1

B1: Mermaid1 (Stilbonema majum) (protein)
chain: MGSSHHHHHHSSGLVPRGSHMAASGWLRSPQGTVVKLYRRSLSWSKADEFCKDVDGRLVVDRTADMHLFLIKNVLKEKKSRVWVGLRRTAPHSRTWIWSDGTRQNEDDLDANLWLRDEPNDAAGEEECALFMYSPWEKAWGLNDYLCRGGCRSYQFICEKWIR
glycan array binding signal (z-score) [1]: 0.313
glycan array binding signal (z-score) [2]: -0.029
glycan array binding signal (z-score) [3]: 0.436
glycan array binding signal (z-score) [4]: 0.788
glycan array binding signal (z-score) [5]: 0.126
glycan array binding signal (z-score) [6]: -0.162
glycan array binding signal (z-score) [7]: 0.108
glycan array binding signal (z-score) [8]: 1.05
glycan array binding signal (z-score) [9]: 0.936
glycan array binding signal (z-score) [10]: 0.578
glycan array binding signal (z-score) [11]: 0.762
glycan array binding signal (z-score) [12]: 0.942
glycan array binding signal (z-score) [13]: 0.156
glycan array binding signal (z-score) [14]: -0.271
glycan array binding signal (z-score) [15]: 1.27
glycan array binding signal (z-score) [16]: -0.581
glycan array binding signal (z-score) [17]: 0.277
glycan array binding signal (z-score) [18]: -0.024
glycan array binding signal (z-score) [19]: -0.29
glycan array binding signal (z-score) [20]: -0.841
glycan array binding signal (z-score) [21]: -0.656
glycan array binding signal (z-score) [22]: -0.466
glycan array binding signal (z-score) [23]: 0.396
glycan array binding signal (z-score) [24]: 1.23
glycan array binding signal (z-score) [25]: -0.198
glycan array binding signal (z-score) [26]: -0.273
glycan array binding signal (z-score) [27]: 0.411
glycan array binding signal (z-score) [28]: 1.33
glycan array binding signal (z-score) [29]: -0.081
glycan array binding signal (z-score) [30]: 1.35
glycan array binding signal (z-score) [31]: -0.183
glycan array binding signal (z-score) [32]: -0.626
glycan array binding signal (z-score) [33]: -0.208
glycan array binding signal (z-score) [34]: 0.164
glycan array binding signal (z-score) [35]: -0.7
glycan array binding signal (z-score) [36]: 0.551
glycan array binding signal (z-score) [37]: -0.215
glycan array binding signal (z-score) [38]: 0.324
glycan array binding signal (z-score) [39]: 1.88
glycan array binding signal (z-score) [40]: 0.037
glycan array binding signal (z-score) [41]: -0.307
glycan array binding signal (z-score) [42]: -0.695
glycan array binding signal (z-score) [43]: -0.609
glycan array binding signal (z-score) [44]: -0.708
glycan array binding signal (z-score) [45]: -0.613
